In PMC6588345 one finds binding data, which are given here for one substance.

Sequences of proteins named here, by UniProt entry; tags and fusion partners are left off. A change or cut given only in a name is not applied to a line headed by its entry. Residues count along the entry.
UniProt Q61089: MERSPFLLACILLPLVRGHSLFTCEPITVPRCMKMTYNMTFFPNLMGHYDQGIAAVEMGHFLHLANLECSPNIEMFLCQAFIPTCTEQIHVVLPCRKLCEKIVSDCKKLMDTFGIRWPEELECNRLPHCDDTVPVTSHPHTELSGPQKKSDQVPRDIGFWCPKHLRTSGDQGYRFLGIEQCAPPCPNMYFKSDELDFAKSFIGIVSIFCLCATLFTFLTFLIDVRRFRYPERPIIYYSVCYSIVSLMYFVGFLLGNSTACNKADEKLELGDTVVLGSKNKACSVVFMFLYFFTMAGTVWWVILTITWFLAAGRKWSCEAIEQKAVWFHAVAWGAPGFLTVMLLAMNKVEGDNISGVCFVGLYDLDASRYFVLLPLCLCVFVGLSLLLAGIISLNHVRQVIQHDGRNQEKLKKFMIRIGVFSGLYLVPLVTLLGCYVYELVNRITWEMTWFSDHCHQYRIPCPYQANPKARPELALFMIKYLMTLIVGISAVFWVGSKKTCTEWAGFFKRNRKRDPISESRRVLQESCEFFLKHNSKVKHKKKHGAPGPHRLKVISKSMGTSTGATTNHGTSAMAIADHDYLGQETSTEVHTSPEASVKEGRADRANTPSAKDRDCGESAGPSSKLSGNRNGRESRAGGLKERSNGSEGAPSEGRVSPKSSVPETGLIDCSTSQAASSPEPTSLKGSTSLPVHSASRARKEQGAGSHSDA
UniProt P48744, residues 25-131: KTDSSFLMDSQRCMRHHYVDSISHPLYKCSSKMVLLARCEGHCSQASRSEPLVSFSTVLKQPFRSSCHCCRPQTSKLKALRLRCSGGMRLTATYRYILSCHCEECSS

Assay [1] concerns the target T1, Fz4 on HEK293T cells (mouse) (UniProt Q61088).
T1 sequence: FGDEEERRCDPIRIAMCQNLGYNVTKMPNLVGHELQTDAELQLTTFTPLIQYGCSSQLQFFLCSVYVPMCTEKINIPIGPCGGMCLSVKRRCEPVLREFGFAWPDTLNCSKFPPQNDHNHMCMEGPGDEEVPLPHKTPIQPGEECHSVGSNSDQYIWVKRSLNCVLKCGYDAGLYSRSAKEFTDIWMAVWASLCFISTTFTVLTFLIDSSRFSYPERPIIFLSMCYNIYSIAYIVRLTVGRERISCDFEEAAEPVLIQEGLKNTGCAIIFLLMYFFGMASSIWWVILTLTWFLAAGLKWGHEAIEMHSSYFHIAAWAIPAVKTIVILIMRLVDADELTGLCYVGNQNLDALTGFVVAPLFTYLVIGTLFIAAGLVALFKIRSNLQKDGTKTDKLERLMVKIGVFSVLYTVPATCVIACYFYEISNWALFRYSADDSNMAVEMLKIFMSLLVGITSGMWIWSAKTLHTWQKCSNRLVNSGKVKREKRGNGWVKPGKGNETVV
As to the kind of experiment: alkaline phosphatase (AP) fusion protein binding to live cells; serum-containing conditioned medium with the AP fusion protein on live transfected HEK293T cells, 4°C, 2 hr; washed, fixed with 4% PFA, endogenous AP heat denatured at 70°C, bound AP visualized with NBT/BCIP.

The target in assay [2] is T2, Fz4CRD-Fz6 on HEK293T cells (mouse) (UniProt Q61088+Q61089).
T2 sequence: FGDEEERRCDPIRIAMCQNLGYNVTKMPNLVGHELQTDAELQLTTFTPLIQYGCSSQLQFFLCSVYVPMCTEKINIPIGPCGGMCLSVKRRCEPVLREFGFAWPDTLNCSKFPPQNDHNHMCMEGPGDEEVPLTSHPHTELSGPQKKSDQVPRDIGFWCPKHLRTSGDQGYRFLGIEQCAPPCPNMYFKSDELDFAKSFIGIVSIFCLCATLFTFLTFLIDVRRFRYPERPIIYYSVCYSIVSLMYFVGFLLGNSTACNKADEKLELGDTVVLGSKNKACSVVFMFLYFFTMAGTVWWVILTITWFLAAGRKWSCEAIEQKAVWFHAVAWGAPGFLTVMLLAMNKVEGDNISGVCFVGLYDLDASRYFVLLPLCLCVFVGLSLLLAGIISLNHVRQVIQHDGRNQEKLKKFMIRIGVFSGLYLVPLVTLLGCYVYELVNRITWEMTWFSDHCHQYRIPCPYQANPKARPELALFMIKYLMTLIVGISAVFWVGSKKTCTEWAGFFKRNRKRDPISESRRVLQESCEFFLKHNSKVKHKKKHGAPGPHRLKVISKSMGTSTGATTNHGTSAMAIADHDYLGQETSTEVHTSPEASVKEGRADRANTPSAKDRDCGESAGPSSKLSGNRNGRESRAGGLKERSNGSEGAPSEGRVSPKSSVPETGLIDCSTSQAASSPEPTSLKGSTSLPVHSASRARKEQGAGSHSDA
Described as above.

No constants are given. Whether binding was seen depends on the method and setting. Some results given as binding are weak or reduced against the parent protein; the word gives no strength.

As to “AP-3xMyc-Norrin (from UniProt P48744 25-131) (ligand)”, the binding result in assay [1] and in assay [2] was “binds” in each case.
